Here are results for five compounds from PubChem BioAssay (EPA / NIEHS).

By UniProt entry, the sequences of proteins in these tests, tags left out. Where a name states a change or a piece, a line headed by the entry shows the natural chain unless it says otherwise.
UniProt P16257, whole entry, looked up: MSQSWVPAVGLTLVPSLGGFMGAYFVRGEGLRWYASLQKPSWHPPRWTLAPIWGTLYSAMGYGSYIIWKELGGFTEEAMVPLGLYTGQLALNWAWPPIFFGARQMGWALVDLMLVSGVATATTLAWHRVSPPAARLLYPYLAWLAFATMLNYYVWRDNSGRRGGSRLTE
UniProt P10275: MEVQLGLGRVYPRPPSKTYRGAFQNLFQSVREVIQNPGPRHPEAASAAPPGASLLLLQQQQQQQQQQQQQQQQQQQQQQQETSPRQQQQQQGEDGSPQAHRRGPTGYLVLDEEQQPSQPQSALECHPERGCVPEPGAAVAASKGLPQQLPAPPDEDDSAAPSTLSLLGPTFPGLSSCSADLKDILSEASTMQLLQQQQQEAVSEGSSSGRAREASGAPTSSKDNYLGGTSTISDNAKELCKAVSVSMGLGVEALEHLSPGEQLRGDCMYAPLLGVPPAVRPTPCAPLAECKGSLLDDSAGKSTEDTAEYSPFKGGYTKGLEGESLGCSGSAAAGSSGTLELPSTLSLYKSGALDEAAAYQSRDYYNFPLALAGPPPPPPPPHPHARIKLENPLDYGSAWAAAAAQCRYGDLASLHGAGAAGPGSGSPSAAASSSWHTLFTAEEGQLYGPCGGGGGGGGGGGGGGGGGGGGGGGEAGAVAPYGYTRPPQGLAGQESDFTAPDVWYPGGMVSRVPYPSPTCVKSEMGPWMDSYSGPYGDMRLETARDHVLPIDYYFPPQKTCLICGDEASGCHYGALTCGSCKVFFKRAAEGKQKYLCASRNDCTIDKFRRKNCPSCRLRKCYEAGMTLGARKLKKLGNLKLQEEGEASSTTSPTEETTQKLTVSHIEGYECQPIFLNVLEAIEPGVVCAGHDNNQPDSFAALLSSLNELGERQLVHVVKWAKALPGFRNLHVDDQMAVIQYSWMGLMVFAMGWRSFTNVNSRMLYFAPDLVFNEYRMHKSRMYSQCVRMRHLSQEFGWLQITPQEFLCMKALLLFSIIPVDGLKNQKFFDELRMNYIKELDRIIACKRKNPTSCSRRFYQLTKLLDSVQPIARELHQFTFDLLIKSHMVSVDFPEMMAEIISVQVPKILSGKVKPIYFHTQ
UniProt Q96RI1: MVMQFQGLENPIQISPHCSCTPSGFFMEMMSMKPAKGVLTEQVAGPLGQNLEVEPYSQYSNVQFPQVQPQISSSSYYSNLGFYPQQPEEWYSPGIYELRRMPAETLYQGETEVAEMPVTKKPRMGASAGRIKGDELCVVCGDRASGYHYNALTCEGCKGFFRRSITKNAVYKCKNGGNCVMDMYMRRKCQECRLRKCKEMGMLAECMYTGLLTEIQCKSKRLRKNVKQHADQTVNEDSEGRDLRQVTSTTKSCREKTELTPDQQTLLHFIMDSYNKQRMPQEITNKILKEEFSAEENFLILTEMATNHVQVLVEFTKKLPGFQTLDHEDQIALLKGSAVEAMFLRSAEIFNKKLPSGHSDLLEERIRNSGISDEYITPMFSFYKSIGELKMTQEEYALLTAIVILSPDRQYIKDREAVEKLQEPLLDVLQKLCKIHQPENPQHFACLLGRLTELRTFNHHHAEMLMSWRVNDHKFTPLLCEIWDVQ
UniProt P19793: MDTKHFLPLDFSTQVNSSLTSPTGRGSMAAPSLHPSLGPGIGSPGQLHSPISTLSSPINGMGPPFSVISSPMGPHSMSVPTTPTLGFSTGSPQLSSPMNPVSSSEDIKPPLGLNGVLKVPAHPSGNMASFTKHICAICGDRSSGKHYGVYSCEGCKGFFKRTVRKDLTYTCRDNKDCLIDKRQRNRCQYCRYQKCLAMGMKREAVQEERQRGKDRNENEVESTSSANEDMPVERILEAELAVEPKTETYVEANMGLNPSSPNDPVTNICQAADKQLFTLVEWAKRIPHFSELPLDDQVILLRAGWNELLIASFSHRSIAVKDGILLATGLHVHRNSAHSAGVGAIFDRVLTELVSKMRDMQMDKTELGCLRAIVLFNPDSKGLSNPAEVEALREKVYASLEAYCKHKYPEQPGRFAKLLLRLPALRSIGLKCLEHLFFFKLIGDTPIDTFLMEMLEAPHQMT
UniProt P03372, whole entry, looked up: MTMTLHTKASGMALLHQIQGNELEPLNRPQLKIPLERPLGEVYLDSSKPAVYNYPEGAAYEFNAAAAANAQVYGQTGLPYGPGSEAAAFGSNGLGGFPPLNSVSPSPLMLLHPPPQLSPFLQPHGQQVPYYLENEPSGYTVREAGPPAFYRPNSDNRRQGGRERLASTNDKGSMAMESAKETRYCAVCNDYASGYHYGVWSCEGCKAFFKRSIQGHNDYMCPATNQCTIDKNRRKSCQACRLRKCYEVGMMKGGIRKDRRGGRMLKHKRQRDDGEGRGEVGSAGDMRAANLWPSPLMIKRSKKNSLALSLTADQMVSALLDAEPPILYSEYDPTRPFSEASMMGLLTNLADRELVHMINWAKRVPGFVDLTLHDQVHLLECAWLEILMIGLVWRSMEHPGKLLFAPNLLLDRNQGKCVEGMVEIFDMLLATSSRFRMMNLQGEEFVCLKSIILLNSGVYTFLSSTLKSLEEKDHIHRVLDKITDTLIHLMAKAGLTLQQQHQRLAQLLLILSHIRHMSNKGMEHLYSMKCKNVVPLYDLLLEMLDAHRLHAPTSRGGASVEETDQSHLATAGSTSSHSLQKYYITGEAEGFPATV
UniProt P37231: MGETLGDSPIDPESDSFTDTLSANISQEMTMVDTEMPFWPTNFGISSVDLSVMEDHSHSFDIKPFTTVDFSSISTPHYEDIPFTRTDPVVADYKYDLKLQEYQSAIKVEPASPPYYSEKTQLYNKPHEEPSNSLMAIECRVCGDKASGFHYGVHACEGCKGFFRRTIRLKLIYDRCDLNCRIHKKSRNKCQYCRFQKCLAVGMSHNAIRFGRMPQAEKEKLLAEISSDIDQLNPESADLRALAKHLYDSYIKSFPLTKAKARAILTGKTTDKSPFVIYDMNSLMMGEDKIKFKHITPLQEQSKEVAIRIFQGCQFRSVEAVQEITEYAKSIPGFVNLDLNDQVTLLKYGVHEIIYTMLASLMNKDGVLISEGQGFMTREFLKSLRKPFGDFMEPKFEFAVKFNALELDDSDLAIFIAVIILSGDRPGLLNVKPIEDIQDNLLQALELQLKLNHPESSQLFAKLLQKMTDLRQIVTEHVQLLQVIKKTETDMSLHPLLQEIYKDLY
UniProt P19328, whole entry, looked up: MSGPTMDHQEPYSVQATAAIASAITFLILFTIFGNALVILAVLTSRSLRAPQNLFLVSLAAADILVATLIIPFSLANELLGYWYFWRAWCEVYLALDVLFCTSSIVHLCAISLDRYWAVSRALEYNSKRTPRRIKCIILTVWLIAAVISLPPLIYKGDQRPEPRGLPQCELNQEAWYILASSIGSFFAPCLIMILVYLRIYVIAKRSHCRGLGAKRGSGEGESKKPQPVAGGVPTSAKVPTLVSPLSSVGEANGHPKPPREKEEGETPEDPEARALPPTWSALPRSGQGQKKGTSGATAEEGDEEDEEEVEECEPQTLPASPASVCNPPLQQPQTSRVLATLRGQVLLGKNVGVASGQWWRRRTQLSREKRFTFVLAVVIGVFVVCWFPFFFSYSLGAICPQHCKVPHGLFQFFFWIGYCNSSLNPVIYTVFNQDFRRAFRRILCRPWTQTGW

Test [1] can be described thus: BSK_SAg_Proliferation: Cell Proliferation Assessment in the BioMAP Diversity Plus: SAg Assay (AID 2283095; active means hit-call score of the fitted dose curve at least 0.9, where 1 is the maximum; inactive means score below 0.9;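 further: relative cell number as total protein by SRB absorbance in sub-confluent culture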). To be noted: primary human HUVEC with PBMC. Summed up:
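Relative cell number in the endothelial cell/PBMC co-culture was quantified at 96 h by SRB staining (0.1% SRB, 10% TCA fixation, read at 560 nm). Curves were fitted in both directions relative to DMSO baseline.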

Read-out in test [2]: Heat shock 70 kDa protein 1 (HSPA1A), gene 3303
Briefly: LTEA_HepaRG_HSPA1A: Life Technologies and Expression Analysis (LTEA) Assay for Heat shock 70 kDa protein 1 (HSPA1A) using HepaRG (AID 2283502; active means hit-call score of the fitted dose curve at least 0.9, where 1 is the maximum; inactive means score below 0.9). To be noted: actives raise or lower the signal; mRNA level, 48 h. The gist of the method: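 HSPA1A expression measured by qRT-PCR with ACTB/GAPDH/POLR2A normalization; curves fitted in both directions relative to DMSO vehicle. Exposure: 48 h in HepaRG cells, duplicate 8-point half-log series from 100 uM, 0.5% DMSO, serum-free induction medium.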

Read-out in test [3]: Insulin Like Growth Factor 1 (IGF1), IGF1 (gene 3479)
Briefly: LTEA_HepaRG_IGF1: Life Technologies and Expression Analysis (LTEA) Assay for Insulin Like Growth Factor 1 (IGF1) using HepaRG (AID 2283506; active means hit-call score of the fitted dose curve at least 0.9, where 1 is the maximum; inactive means score below 0.9). To be noted: actives raise or lower the signal; mRNA level, 48 h. Summed up: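 Expression measured by TaqMan qRT-PCR on a Fluidigm array, with three housekeeping genes for normalisation, after 48 h treatment of HepaRG cells. Top concentration 100 uM with half-log steps, 0.5% DMSO vehicle, bidirectional fit.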

Read-out in test [4]: Phosphatase and tensin (PTEN), PTEN (gene 5728)
As to the kind of experiment: LTEA_HepaRG_PTEN: Life Technologies and Expression Analysis (LTEA) Assay for Phosphatase and tensin (PTEN) using HepaRG (AID 2283523; active means hit-call score of the fitted dose curve at least 0.9, where 1 is the maximum; inactive means score below 0.9). To be noted: actives raise or lower the signal; mRNA level, 48 h. Summed up:
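Expression of PTEN is quantified in the human liver line HepaRG following two days of dosing (top concentration 100 uM, half-log dilutions, 0.5% DMSO). Values derive from bidirectional curve fitting relative to DMSO controls.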

Test [5] relates to rabbit Platelet Activating Factor Receptor (PAF), gene 100354046. Briefly: NVS_GPCR_rabPAF: NovaScreen (NVS) G Protein-Coupled Receptor Assay for rabbit Platelet Activating Factor Receptor (PAF) (AID 2283287).
For test [6], the target named is rat Peripheral-type Benzodiazepine Receptor (PBR), Tspo (gene 24230) (UniProt P16257). As to the kind of experiment: NVS_MP_rPBR: NovaScreen (NVS) Membrane Protein Assay for rat Peripheral-type Benzodiazepine Receptor (PBR) (AID 2283335). Summed up:
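Competitive displacement of specific radioligand from rat kidney membrane PBR, read by filtration and scintillation after 1 h. Compounds first tested at 25 uM in duplicate, then in concentration series; signal loss relative to DMSO.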

Test [7] has as its target Androgen Receptor/SRC-1 Co-activator, AR (gene 367) (UniProt P10275). Briefly: OT_AR_ARSRC1_0960: Odyssey Thera (OT) 16-hour HEK293T Protein-Complementation Assay for Androgen Receptor/SRC-1 Co-activator (AID 2283353).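 Further: actives raise the signal above DMSO so potency reflects increased AR and SRC-1 complex.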 Summed up:
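Endpoint is gain-of-signal N/C fluorescence ratio in the 488 nm channel versus DMSO, from at least 400 cells per image, measured 16 h post-dosing. Cells: HEK293T stably carrying split-Venus AR/SRC-1 complementation constructs.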

Test [8] deals with Bile acid receptor (Homo sapiens) (UniProt Q96RI1). Briefly: OT_FXR_FXRSRC1_1440: Odyssey Thera (OT) 24-hour HEK293T Protein-Complementation Assay for Farnesoid X receptor/SRC-1 Co-activator (AID 2283384). The gist of the method:
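Protein-fragment complementation: FXR and SRC-1 fused to reporter fragments that reassemble on interaction, read by fluorescence intensity. Human HEK293T cells measured 24 h post-dose; positive-direction fit versus DMSO.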

Test [9] deals with Retinoic acid receptor RXR-alpha (Homo sapiens) (UniProt P19793). As to the kind of experiment: OT_NURR1_NURR1RXRa_1440: Odyssey Thera (OT) 24-hour HEK293T Protein Complementation Assay for Nurr1/retinoid X receptor (RXR) (AID 2283386). Summed up: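 Gain in fluorescence, fitted relative to DMSO, reflects Nurr1–RXRα association in HEK293T cells after 24 h dosing. Bait and prey are each linked to a reporter-protein fragment that reassembles on interaction.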

Read-out in test [10]: Early growth response protein 1 (EGR1) transcription factor, EGR1 (gene 1958)
Briefly: LTEA_HepaRG_EGR1: Life Technologies and Expression Analysis (LTEA) Assay for Early growth response protein 1 (EGR1) transcription factor using HepaRG (AID 2283490; active means hit-call score of the fitted dose curve at least 0.9, where 1 is the maximum; inactive means score below 0.9). To be noted: actives raise or lower the signal; mRNA level, 48 h. The gist of the method:
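EGR1 expression change in human HepaRG after 48 h chemical exposure, assessed by housekeeping-normalized qRT-PCR; concentration-response up to 100 uM, fitted in both directions against DMSO controls.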

The subject of another test is SERPINA7 (gene 6906). As to the kind of experiment: CCTE_GLTED_hTBG: CCTE's human Thyroxine-binding Globulin (TBG) Inhibition Assay, Great Lakes Toxicology and Ecology Division (GLTED) Lab (AID 2284343).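 Further: active chemicals lower fluorescence versus DMSO baseline by displacing probe.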 The gist of the method:
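Cell-free displacement of the fluorescent probe ANSA from human thyroxine-binding globulin after 2 h exposure. Read-out at ex 380/em 475 nm; DMSO baseline.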

Test [11] has as its target Estrogen receptor (Homo sapiens) (UniProt P03372). Briefly: OT_ER_ERaERa_1440: Odyssey Thera (OT) 24-hour HEK293T Protein-Complementation Assay for Estrogen Receptor-alpha/-alpha Homodimer (AID 2283349).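 Further: hits raise fluorescence above DMSO for agonists and antagonists alike.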 The gist of the method: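 Stably transfected HEK293T; ERα LBD homodimer PCA. 24 h dosing, fluorescence intensity read, gain-of-signal vs DMSO.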
The target in test [12] is Peroxisome proliferator-activated receptor gamma (Homo sapiens) (UniProt P37231). Briefly: OT_PPARg_PPARgSRC1_1440: Odyssey Thera (OT) 24-hour Protein-Complementation Assay for Peroxisome Proliferator-activated Receptor Gamma/ SRC-1 Co-activator (AID 2283388). Summed up:
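HEK293T cells transiently transfected with PPARg and SRC-1 fused via (Gly4Ser)2 linker to split Venus YFP fragments (IFP1/IFP2) were dosed 24 h; fixed, Draq5-stained, imaged at 488/635 nm; nuclear/cytoplasmic fluorescence ratio scored versus DMSO baseline, gain-of-signal.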

Read-out in test [13]: Lipase C (LIPC), LIPC (gene 3990)
As to the kind of experiment: LTEA_HepaRG_LIPC: Life Technologies and Expression Analysis (LTEA) Assay for Lipase C (LIPC) using HepaRG (AID 2283514; active means hit-call score of the fitted dose curve at least 0.9, where 1 is the maximum; inactive means score below 0.9). To be noted: actives raise or lower the signal; mRNA level, 48 h. The gist of the method:
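In this multiplexed gene-expression screen, human HepaRG cultures received test chemicals for 48 h across eight concentrations with 100 uM highest, in duplicate. Values reflect LIPC mRNA induction or suppression versus DMSO vehicle, from normalized qRT-PCR.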

Read-out in test [14]: solute carrier (SLC22A1), SLC22A1 (gene 6580)
Briefly: LTEA_HepaRG_SLC22A1: Life Technologies and Expression Analysis (LTEA) Assay for solute carrier (SLC22A1) using HepaRG (AID 2283524; active means hit-call score of the fitted dose curve at least 0.9, where 1 is the maximum; inactive means score below 0.9). To be noted: actives raise or lower the signal; mRNA level, 48 h. The gist of the method:
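Transcript induction or suppression of SLC22A1 in human HepaRG cultures is scored after 48 h chemical treatment, with DMSO (0.5%) as baseline for bidirectional fitting. Concentrations span eight half-log points topping at 100 uM.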

A further test addresses Adra2b (gene 24174) (UniProt P19328). As to the kind of experiment: NVS_GPCR_rmAdra2B: NovaScreen (NVS) G Protein-Coupled Receptor Assay for hybird cells Adrenergic, Alpha 2B Receptor (Adra2B) (AID 2283306). Summed up:
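Compounds screened first at 25 uM in duplicate, with actives followed up in concentration-response; specific radioligand displacement from hybrid neuroglioma/blastoma cell membrane preparations measured by filter scintillation counting after 1 h, normalized to DMSO.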

Structures are written as SMILES. For some assays here: This list holds what a sample rich in hits left over. Results filed as inconclusive are left out. The list shows a part of the results, in another mix than the full data. Active and inactive are the calls of the source. How the source made its calls, unless noted: active means hit-call score of the fitted dose curve at least 0.9, where 1 is the maximum; inconclusive means response in the unintended direction; inactive means score below 0.9.

With `Cc1c2ccccc2c(C)c2c1ccc1ccccc12`, the half-maximal activity concentration (AC50) is active: 24.5 µM in test [1] and active: 24.3 µM in test [3]. Besides, the compound was called inactive in [2] and in [4].
As to `CCCCC(CC)COC(=O)c1ccccc1C(=O)O` (configuration not stated), the compound was classed as inactive in test [5].
As to `CCCCOC(=O)c1ccc(O)cc1`, the half-maximal activity concentration (AC50) was active: 4.29 µM in test [6], active: 18.3 µM in test [8] and active: 41.7 µM with SERPINA7 (gene 6906). For the same compound, the compound was called inactive in test [7], in test [9] and in test [10].
For the compound `Cc1nc(C)nc(N2C[C@@H](C)N(c3ccnc([C@@H](C)O)n3)[C@@H](C)C2)n1`, the call in [11], in test [12], in test [13] and in test [14] was inactive.
As for `COCCOc1cc2cc(C(=O)NC3CCN(C(C)C)CC3)n(CC(=O)Nc3ccc(Cl)cn3)c2cn1`, the AC50 with Adra2b (gene 24174) is active: 6.84 µM. In addition, the result in [2] was inactive.

The AC50 is the concentration giving half of the maximal activity seen.
